The supplement of paper PMC12823440, “Inhibitors supercharge kinase turnover through native proteolytic circuits” (Nature, 2025)
Counter-ions that a name gives are not always drawn. Some of the results follow. The calls rarely recur for the same compound in another form.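 Kinases, fused to nanoluciferase, were expressed in K562 cells; luminescence was measured every 4 h from 2 to 18 h as percent of control (DMSO = 100%, positive control = 0%). A time point is decreased if signal falls significantly (2 sigma). Hits were called by the authors by a rule that is not shown; the count of time points alone does not decide it.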

Protein sequences, listed by entry. Tags and fused reporters are not part of them.
UniProt P29317, whole entry: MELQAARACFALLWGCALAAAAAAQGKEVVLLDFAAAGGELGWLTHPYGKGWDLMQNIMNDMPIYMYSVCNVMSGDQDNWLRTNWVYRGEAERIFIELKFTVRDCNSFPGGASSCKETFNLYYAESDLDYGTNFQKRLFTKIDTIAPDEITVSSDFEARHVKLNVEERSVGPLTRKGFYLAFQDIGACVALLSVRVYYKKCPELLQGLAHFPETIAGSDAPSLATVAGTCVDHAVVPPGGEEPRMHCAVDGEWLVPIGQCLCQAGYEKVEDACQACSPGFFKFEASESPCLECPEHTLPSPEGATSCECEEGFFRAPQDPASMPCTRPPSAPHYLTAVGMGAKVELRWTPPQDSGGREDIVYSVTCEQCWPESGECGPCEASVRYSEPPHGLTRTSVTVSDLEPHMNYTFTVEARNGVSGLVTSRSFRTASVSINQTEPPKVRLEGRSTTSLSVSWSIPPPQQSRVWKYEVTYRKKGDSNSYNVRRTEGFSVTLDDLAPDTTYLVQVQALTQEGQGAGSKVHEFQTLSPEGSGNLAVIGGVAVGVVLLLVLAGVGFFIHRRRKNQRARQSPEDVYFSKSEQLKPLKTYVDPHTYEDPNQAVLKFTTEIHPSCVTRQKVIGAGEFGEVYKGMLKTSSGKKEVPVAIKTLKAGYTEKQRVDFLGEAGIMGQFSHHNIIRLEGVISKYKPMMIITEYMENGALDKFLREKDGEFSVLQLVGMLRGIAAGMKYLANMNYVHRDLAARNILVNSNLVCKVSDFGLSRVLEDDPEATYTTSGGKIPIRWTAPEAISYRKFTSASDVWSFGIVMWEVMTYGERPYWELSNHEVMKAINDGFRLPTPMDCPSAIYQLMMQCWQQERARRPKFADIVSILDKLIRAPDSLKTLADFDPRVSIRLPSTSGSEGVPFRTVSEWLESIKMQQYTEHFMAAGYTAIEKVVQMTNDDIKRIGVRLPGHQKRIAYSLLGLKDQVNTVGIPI
UniProt P21860, whole entry: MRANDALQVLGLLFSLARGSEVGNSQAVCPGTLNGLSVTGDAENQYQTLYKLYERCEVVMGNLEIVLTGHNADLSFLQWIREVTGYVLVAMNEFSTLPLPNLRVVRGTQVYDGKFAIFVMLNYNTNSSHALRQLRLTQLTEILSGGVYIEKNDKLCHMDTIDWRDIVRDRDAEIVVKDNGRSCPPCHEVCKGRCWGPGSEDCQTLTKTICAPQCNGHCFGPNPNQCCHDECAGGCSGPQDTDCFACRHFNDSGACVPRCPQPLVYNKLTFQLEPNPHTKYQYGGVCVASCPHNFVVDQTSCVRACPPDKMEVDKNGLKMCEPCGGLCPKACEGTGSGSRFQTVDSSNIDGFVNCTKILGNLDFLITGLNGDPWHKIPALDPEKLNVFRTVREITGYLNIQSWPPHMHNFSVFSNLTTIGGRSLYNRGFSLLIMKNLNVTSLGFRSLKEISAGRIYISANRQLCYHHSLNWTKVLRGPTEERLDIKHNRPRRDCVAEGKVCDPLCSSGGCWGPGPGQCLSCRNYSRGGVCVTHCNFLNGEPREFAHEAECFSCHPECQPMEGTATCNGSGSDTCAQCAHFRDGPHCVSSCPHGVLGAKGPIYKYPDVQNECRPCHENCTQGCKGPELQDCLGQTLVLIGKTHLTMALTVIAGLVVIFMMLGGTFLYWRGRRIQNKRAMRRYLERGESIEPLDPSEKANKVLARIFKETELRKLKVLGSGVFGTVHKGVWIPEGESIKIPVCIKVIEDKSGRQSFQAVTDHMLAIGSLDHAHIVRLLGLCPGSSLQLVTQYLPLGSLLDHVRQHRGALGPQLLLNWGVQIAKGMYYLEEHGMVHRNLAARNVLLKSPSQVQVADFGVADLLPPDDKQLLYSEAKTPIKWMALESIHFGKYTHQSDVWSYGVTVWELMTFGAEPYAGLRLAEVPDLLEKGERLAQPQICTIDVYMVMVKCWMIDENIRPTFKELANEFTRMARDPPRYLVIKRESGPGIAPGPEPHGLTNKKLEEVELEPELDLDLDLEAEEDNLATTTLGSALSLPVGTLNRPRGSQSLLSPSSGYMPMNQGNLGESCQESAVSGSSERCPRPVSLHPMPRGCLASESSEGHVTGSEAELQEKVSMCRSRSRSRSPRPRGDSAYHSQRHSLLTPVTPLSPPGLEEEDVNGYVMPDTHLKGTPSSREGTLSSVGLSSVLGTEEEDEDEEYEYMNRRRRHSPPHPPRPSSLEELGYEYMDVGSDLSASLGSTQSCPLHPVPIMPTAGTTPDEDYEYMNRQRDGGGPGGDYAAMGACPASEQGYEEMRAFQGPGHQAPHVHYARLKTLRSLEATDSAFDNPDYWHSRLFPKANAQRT
UniProt Q15303, whole entry R711C: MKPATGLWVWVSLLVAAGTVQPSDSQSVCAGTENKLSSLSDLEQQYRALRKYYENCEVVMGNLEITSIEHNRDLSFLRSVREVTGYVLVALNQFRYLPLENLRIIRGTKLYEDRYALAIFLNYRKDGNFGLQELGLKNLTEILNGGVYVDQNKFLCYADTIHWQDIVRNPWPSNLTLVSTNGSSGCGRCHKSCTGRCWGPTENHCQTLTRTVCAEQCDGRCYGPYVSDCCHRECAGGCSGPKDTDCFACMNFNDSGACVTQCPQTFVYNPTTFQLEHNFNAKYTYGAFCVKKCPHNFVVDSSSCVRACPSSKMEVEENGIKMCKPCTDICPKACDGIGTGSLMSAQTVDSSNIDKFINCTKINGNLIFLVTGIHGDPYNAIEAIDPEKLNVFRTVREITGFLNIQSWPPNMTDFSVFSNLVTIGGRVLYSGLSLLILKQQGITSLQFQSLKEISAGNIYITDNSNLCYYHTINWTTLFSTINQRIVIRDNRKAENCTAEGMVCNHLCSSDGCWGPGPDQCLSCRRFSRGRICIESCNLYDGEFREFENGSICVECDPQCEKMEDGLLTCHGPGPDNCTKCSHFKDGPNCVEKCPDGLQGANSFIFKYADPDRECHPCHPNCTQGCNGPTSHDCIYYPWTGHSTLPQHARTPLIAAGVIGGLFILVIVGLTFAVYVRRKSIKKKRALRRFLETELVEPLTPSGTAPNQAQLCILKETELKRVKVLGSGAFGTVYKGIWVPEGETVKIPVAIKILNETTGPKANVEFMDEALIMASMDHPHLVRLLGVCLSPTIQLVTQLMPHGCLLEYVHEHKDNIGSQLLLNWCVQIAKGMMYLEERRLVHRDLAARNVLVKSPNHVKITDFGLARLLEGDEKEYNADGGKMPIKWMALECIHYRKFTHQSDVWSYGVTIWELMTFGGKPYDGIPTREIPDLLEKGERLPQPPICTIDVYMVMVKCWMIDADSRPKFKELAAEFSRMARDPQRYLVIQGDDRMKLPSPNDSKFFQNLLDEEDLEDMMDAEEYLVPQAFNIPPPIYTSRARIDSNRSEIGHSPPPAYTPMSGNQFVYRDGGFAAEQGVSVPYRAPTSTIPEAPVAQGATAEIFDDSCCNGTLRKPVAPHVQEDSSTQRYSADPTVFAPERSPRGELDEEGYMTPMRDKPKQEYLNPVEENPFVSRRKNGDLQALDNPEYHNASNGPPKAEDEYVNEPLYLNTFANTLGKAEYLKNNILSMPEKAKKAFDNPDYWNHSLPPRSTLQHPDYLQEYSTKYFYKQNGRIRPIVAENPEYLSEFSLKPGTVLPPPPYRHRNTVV

Columns and labels:
Test in all cases: kinase-Nluc reporter destabilization hit call (1 = scored as downregulated) (binary); higher = compound decreases kinase abundance
Details in all cases: K562, 2-18 h
EGFR = EGFR (UniProt P00533)
EGFR_G719S = EGFR_G719S (UniProt P00533)
EGFR_G719S_T790M = EGFR_G719S_T790M (UniProt P00533)
EGFR_L718V = EGFR_L718V (UniProt P00533)
EGFR_L858R = EGFR_L858R (UniProt P00533)
EGFR_L861Q = EGFR_L861Q (UniProt P00533)
EGFR_T790M = EGFR_T790M (UniProt P00533)
EPHA2 = EPHA2 (UniProt P29317)
ERBB3 = ERBB3 (UniProt P21860)
[1] = biological target: ERBB4_R711C (clone: ERBB4_mut) (UniProt Q15303)

Measured: kinase-Nluc reporter destabilization hit call

Cc1[nH]c(/C=C2\C(=O)Nc3ccc(F)cc32)c(C)c1C(=O)NC[C@H](O)CN1CCOCC1
inactive: EGFR; 2.5 µM 0 | EGFR_G719S; 2.5 µM 0 | EGFR_G719S_T790M; 2.5 µM 0 | EGFR_L718V; 2.5 µM 0 | EGFR_L858R; 2.5 µM 0 | EGFR_L861Q; 2.5 µM 0 | EGFR_T790M; 2.5 µM 0 | EPHA2; 2.5 µM 0 | ERBB3; 2.5 µM 0 | [1]; 2.5 µM 0

NC1(C(=O)N[C@@H](CCO)c2ccc(Cl)cc2)CCN(c2nc[nH]c3nccc2-3)CC1 [Capivasertib]
inactive: EGFR; 10 µM 0 | EGFR_G719S; 10 µM 0 | EGFR_G719S_T790M; 10 µM 0 | EGFR_L718V; 10 µM 0 | EGFR_L858R; 10 µM 0 | EGFR_L861Q; 10 µM 0 | EGFR_T790M; 10 µM 0 | EPHA2; 10 µM 0 | ERBB3; 10 µM 0 | [1]; 10 µM 0

C=CC(=O)N1CCC[C@@H](n2nc(-c3ccc(Oc4ccccc4)cc3)c3c(N)ncnc32)C1 [Ibrutinib]
inactive: EGFR; 2.5 µM 0 | EGFR_G719S; 2.5 µM 0 | EGFR_G719S_T790M; 2.5 µM 0 | EGFR_L718V; 2.5 µM 0 | EGFR_L858R; 2.5 µM 0 | EGFR_L861Q; 2.5 µM 0 | EGFR_T790M; 2.5 µM 0 | EPHA2; 2.5 µM 0 | ERBB3; 2.5 µM 0 | [1]; 2.5 µM 0

NCCNc1ncc(C(N)=O)c(Nc2cccc(C(F)(F)F)c2)n1 [Syk Inhibitor II]
inactive: EGFR; 10 µM 0 | EGFR_G719S; 10 µM 0 | EGFR_G719S_T790M; 10 µM 0 | EGFR_L718V; 10 µM 0 | EGFR_L858R; 10 µM 0 | EGFR_L861Q; 10 µM 0 | EGFR_T790M; 10 µM 0 | EPHA2; 10 µM 0 | ERBB3; 10 µM 0 | [1]; 10 µM 0

Cc1cnc(Nc2ccc(OCCN3CCCC3)cc2)nc1Nc1cccc(S(=O)(=O)NC(C)(C)C)c1 [Fedratinib]
inactive: EGFR; 2.5 µM 0 | EGFR_G719S; 2.5 µM 0 | EGFR_G719S_T790M; 2.5 µM 0 | EGFR_L718V; 2.5 µM 0 | EGFR_L858R; 2.5 µM 0 | EGFR_L861Q; 2.5 µM 0 | EGFR_T790M; 2.5 µM 0 | EPHA2; 2.5 µM 0 | ERBB3; 2.5 µM 0 | [1]; 2.5 µM 0

CCCCCCCCCCCCc1ccc(S(=O)(=O)Nc2nncs2)cc1
inactive: EGFR; 10 µM 0 | EGFR_G719S; 10 µM 0 | EGFR_G719S_T790M; 10 µM 0 | EGFR_L718V; 10 µM 0 | EGFR_L858R; 10 µM 0 | EGFR_L861Q; 10 µM 0 | EGFR_T790M; 10 µM 0 | EPHA2; 10 µM 0 | ERBB3; 10 µM 0 | [1]; 10 µM 0

CN1CCN(c2ccc3nc(-c4c(N)c5c(F)cccc5[nH]c4=O)[nH]c3c2)CC1 [Dovitinib (lactate)]
inactive: EGFR; 2.5 µM 0 | EGFR_G719S; 2.5 µM 0 | EGFR_G719S_T790M; 2.5 µM 0 | EGFR_L718V; 2.5 µM 0 | EGFR_L858R; 2.5 µM 0 | EGFR_L861Q; 2.5 µM 0 | EGFR_T790M; 2.5 µM 0 | EPHA2; 2.5 µM 0 | ERBB3; 2.5 µM 0

C[C@@H]1O[C@@H](Oc2c(-c3ccc(O)c(O)c3)oc3cc(O)cc(O)c3c2=O)[C@H](O)[C@H](O)[C@H]1O [Quercitrin]
inactive: EGFR; 10 µM 0 | EGFR_G719S; 10 µM 0 | EGFR_G719S_T790M; 10 µM 0 | EGFR_L718V; 10 µM 0 | EGFR_L858R; 10 µM 0 | EGFR_L861Q; 10 µM 0 | EGFR_T790M; 10 µM 0 | EPHA2; 10 µM 0 | ERBB3; 10 µM 0 | [1]; 10 µM 0

CCn1c(=O)c(-c2cc(NC(=O)Nc3ccccc3)c(F)cc2Br)cc2cnc(NC)cc21 [Ripretinib]
active: ERBB3; 10 µM 1
inactive: EGFR; 10 µM 0 | EGFR_G719S; 10 µM 0 | EGFR_G719S_T790M; 10 µM 0 | EGFR_L718V; 10 µM 0 | EGFR_L858R; 10 µM 0 | EGFR_L861Q; 10 µM 0 | EGFR_T790M; 10 µM 0 | EPHA2; 10 µM 0 | [1]; 10 µM 0

Cc1cnc(Nc2ccc(OCCN3CCCC3)cc2)nc1Nc1cccc(S(=O)(=O)NC(C)(C)C)c1 [Fedratinib (hydrochloride hydrate)]
inactive: EGFR; 2.5 µM 0 | EGFR_G719S; 2.5 µM 0 | EGFR_G719S_T790M; 2.5 µM 0 | EGFR_L718V; 2.5 µM 0 | EGFR_L858R; 2.5 µM 0 | EGFR_L861Q; 2.5 µM 0 | EGFR_T790M; 2.5 µM 0 | EPHA2; 2.5 µM 0 | ERBB3; 2.5 µM 0 | [1]; 2.5 µM 0

Cc1ccc(Nc2nccc(N(C)c3ccc4c(C)n(C)nc4c3)n2)cc1S(N)(=O)=O [Pazopanib]
inactive: EGFR; 10 µM 0 | EGFR_G719S; 10 µM 0 | EGFR_G719S_T790M; 10 µM 0 | EGFR_L718V; 10 µM 0 | EGFR_L858R; 10 µM 0 | EGFR_L861Q; 10 µM 0 | EGFR_T790M; 10 µM 0 | EPHA2; 10 µM 0 | ERBB3; 10 µM 0 | [1]; 10 µM 0

C=CC(=O)N1CCC([C@@H]2CCNc3c(C(N)=O)c(-c4ccc(Oc5ccccc5)cc4)nn32)CC1 [Zanubrutinib]
inactive: EGFR; 10 µM 0 | EGFR_G719S; 10 µM 0 | EGFR_G719S_T790M; 10 µM 0 | EGFR_L718V; 10 µM 0 | EGFR_L858R; 10 µM 0 | EGFR_L861Q; 10 µM 0 | EGFR_T790M; 10 µM 0 | EPHA2; 10 µM 0 | ERBB3; 10 µM 0 | [1]; 10 µM 0

CC(=O)c1c(C)c2cnc(Nc3ccc(N4CCN(C(=O)CCCCCC(=O)N[C@H](C(=O)N5C[C@H](O)C[C@H]5C(=O)NCc5ccc(-c6scnc6C)cc5)C(C)(C)C)CC4)cn3)nc2n(C2CCCC2)c1=O
inactive: EGFR; 2.5 µM 0 | EGFR_G719S; 2.5 µM 0 | EGFR_G719S_T790M; 2.5 µM 0 | EGFR_L718V; 2.5 µM 0 | EGFR_L858R; 2.5 µM 0 | EGFR_L861Q; 2.5 µM 0 | EGFR_T790M; 2.5 µM 0 | EPHA2; 2.5 µM 0 | ERBB3; 2.5 µM 0 | [1]; 2.5 µM 0

2 entries picked at random from the list so far, as already listed:
C=CC(=O)N1CCC([C@@H]2CCNc3c(C(N)=O)c(-c4ccc(Oc5ccccc5)cc4)nn32)CC1 [Zanubrutinib]
inactive: EGFR; 10 µM 0 | EGFR_G719S; 10 µM 0 | EGFR_G719S_T790M; 10 µM 0 | EGFR_L718V; 10 µM 0 | EGFR_L858R; 10 µM 0 | EGFR_L861Q; 10 µM 0 | EGFR_T790M; 10 µM 0 | EPHA2; 10 µM 0 | ERBB3; 10 µM 0 | [1]; 10 µM 0

CCn1c(=O)c(-c2cc(NC(=O)Nc3ccccc3)c(F)cc2Br)cc2cnc(NC)cc21 [Ripretinib]
active: ERBB3; 10 µM 1
inactive: EGFR; 10 µM 0 | EGFR_G719S; 10 µM 0 | EGFR_G719S_T790M; 10 µM 0 | EGFR_L718V; 10 µM 0 | EGFR_L858R; 10 µM 0 | EGFR_L861Q; 10 µM 0 | EGFR_T790M; 10 µM 0 | EPHA2; 10 µM 0 | [1]; 10 µM 0

(list continues)

COc1ccc(-c2cc(C(=O)NN=C(C)c3ccc(OC)c(OC)c3)[nH]n2)cc1
inactive: EGFR; 10 µM 0 | EGFR_G719S; 10 µM 0 | EGFR_G719S_T790M; 10 µM 0 | EGFR_L718V; 10 µM 0 | EGFR_L858R; 10 µM 0 | EGFR_L861Q; 10 µM 0 | EGFR_T790M; 10 µM 0 | EPHA2; 10 µM 0 | ERBB3; 10 µM 0 | [1]; 10 µM 0

Nc1nc(Nc2ccc(S(N)(=O)=O)cc2)nn1C(=O)c1c(F)cccc1F
inactive: EGFR; 2.5 µM 0 | EGFR_G719S; 2.5 µM 0 | EGFR_G719S_T790M; 2.5 µM 0 | EGFR_L718V; 2.5 µM 0 | EGFR_L858R; 2.5 µM 0 | EGFR_L861Q; 2.5 µM 0 | EGFR_T790M; 2.5 µM 0 | EPHA2; 2.5 µM 0 | ERBB3; 2.5 µM 0 | [1]; 2.5 µM 0

Nc1ncccc1-c1nc2ccc(-c3ccccc3)nc2n1-c1ccc(C2(N)CCC2)cc1 [Miransertib]
inactive: EGFR; 10 µM 0 | EGFR_G719S; 10 µM 0 | EGFR_G719S_T790M; 10 µM 0 | EGFR_L718V; 10 µM 0 | EGFR_L858R; 10 µM 0 | EGFR_L861Q; 10 µM 0 | EGFR_T790M; 10 µM 0 | EPHA2; 10 µM 0 | ERBB3; 10 µM 0 | [1]; 10 µM 0

C[C@H]1CN(C2COC2)CCN1c1ccc(Nc2cc(-c3ccnc(N4CCn5c(cc6c5CC(C)(C)C6)C4=O)c3CO)cn(C)c2=O)nc1 [Fenebrutinib]
inactive: EGFR; 10 µM 0 | EGFR_G719S; 10 µM 0 | EGFR_G719S_T790M; 10 µM 0 | EGFR_L718V; 10 µM 0 | EGFR_L858R; 10 µM 0 | EGFR_L861Q; 10 µM 0 | EGFR_T790M; 10 µM 0 | EPHA2; 10 µM 0 | ERBB3; 10 µM 0 | [1]; 10 µM 0

Cc1cc(C)n2c1C=C1C=CC(CCC(=O)NCCN3CCN(C/C=C/C(=O)N4CCCC(n5nc(-c6ccc(Oc7ccccc7)cc6)c6c(N)ncnc65)C4)CC3)=[N+]1[B-]2(F)F (centres undefined)
inactive: EGFR; 2.5 µM 0 | EGFR_G719S; 2.5 µM 0 | EGFR_G719S_T790M; 2.5 µM 0 | EGFR_L718V; 2.5 µM 0 | EGFR_L858R; 2.5 µM 0 | EGFR_L861Q; 2.5 µM 0 | EGFR_T790M; 2.5 µM 0 | EPHA2; 2.5 µM 0 | ERBB3; 2.5 µM 0 | [1]; 2.5 µM 0

Cc1ccc(O)cc1Nc1ccnc(Nc2cccc(C(N)=O)c2)n1 [Lck inhibitor 2]
inactive: EGFR; 10 µM 0 | EGFR_G719S; 10 µM 0 | EGFR_G719S_T790M; 10 µM 0 | EGFR_L718V; 10 µM 0 | EGFR_L858R; 10 µM 0 | EGFR_L861Q; 10 µM 0 | EGFR_T790M; 10 µM 0 | EPHA2; 10 µM 0 | ERBB3; 10 µM 0 | [1]; 10 µM 0

O=c1ncn2nc(Sc3ccc(F)cc3F)ccc2c1-c1c(Cl)cccc1Cl [Neflamapimod]
inactive: EGFR; 10 µM 0 | EGFR_G719S; 10 µM 0 | EGFR_G719S_T790M; 10 µM 0 | EGFR_L718V; 10 µM 0 | EGFR_L858R; 10 µM 0 | EGFR_L861Q; 10 µM 0 | EGFR_T790M; 10 µM 0 | EPHA2; 10 µM 0 | ERBB3; 10 µM 0 | [1]; 10 µM 0
